The results in this text go back to paper PMC9617928.

Chains of the proteins cited; added tags and fusions are not shown.
UniProt P31749: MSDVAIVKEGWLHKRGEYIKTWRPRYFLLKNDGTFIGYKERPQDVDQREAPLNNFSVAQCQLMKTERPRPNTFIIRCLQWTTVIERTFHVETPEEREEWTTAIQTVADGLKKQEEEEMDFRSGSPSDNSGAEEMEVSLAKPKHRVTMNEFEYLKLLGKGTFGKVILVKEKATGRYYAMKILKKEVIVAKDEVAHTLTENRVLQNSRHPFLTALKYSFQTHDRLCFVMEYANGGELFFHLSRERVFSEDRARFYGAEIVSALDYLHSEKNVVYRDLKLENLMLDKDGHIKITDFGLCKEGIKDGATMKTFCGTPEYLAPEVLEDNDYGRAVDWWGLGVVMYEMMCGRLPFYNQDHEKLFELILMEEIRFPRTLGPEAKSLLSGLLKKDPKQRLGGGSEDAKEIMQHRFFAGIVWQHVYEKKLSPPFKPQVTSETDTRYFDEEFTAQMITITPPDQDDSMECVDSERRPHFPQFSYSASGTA
UniProt P31751: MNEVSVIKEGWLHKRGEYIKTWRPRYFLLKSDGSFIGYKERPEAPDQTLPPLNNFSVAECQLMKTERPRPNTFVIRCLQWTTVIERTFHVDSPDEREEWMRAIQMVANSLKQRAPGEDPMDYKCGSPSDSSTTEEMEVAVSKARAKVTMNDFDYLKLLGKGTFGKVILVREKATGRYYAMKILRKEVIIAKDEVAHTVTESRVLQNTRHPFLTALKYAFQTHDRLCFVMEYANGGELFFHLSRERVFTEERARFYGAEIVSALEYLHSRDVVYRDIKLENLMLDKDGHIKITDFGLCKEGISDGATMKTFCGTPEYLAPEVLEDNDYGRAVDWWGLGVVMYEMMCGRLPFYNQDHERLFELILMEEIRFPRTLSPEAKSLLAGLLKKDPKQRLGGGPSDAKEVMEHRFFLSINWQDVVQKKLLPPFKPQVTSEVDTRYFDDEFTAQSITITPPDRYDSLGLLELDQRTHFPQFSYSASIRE
UniProt Q9Y243: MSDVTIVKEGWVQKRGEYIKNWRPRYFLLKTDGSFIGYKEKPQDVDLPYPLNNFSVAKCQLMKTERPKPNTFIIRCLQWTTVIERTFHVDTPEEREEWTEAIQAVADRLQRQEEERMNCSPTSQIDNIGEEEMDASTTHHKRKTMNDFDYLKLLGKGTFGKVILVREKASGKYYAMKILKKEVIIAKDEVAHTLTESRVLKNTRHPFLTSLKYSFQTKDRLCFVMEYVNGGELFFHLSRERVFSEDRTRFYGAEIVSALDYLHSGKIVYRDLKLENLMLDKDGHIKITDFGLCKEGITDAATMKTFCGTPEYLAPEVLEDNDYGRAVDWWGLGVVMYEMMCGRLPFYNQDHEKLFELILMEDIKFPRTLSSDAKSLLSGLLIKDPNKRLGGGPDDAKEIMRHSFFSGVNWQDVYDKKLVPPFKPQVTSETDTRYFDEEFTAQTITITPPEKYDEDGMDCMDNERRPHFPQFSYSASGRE
UniProt Q15046: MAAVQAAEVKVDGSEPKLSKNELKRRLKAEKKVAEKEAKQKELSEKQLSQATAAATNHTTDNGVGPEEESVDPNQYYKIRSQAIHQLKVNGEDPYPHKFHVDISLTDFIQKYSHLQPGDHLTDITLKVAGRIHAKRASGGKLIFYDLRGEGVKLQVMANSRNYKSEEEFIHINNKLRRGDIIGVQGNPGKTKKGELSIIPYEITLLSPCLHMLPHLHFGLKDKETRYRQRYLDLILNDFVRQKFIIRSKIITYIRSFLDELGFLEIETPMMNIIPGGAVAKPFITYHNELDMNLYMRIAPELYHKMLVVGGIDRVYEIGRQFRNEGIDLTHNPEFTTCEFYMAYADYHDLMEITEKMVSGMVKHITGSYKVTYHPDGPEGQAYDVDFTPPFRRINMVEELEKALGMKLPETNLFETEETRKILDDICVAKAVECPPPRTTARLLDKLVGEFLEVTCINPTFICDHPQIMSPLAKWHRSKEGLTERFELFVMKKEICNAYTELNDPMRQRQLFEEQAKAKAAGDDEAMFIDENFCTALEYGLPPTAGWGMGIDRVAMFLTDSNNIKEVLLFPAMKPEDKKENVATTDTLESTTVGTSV

Like-named read-outs stand apart in the source and are kept apart here. Results are given in words; binding and its absence hold for the method and conditions named. In cells and extracts the contact can be indirect. Some binding calls cover weakened binding; strength is not graded here. For some assays here: Tags and fused reporters may be left off the sequences shown.

For assay [1], the target named is GST-AKT1 (UniProt P31749). Description: pull-down; 293T cells cotransfected with GST-AKT1 and EPRS1-FLAG; Glutathione precipitation, immunoblot with anti-FLAG. In general terms: A western blot detects proteins with antibodies after separation by electrophoresis.
In assay [2] the target is Strep-AKT1 (UniProt P31749). Description: pull-down; 293T cells cotransfected with a Strep-tagged and an HA- or FLAG-tagged protein; Strep precipitation (Strep-Tactin beads), immunoblot with anti-HA or anti-FLAG.
Assay [3] concerns the target Strep-AKT2 (UniProt P31751). Described as above.
In assay [4] the target is Strep-AKT3 (UniProt Q9Y243). The description is as above.
Assay [5] concerns the target Strep-EPRS1 (glutamyl-prolyl-tRNA synthetase 1, Strep-tagged) (human) (UniProt P07814). The description is as above.
Assay [6] has as its target EPRS1, endogenous in U937 cells (human (endogenous in U937)) (UniProt P07814). Description: co-IP; endogenous IP with anti-EPRS1 from U937 lysates, blots with anti-MARS1, anti-AIMP3, anti-KARS1; cells treated with LPS (100 ng/ml) for various times, IFNγ (100 ng/ml) as positive control.
Assay [7] has as its target AKT1-FLAG, full-length (aa 1-481) (UniProt P31749). Description: co-IP; lysates of 293T cells expressing Strep-EPRS1 and AKT1-FLAG proteins; anti-FLAG immunoprecipitation, immunoblot with anti-Strep.
Assay [8] addresses Strep-AKT1 (UniProt P31749). Description: pull-down; 293T cells cotransfected with a Strep-tagged and an HA- or FLAG-tagged protein; Strep precipitation (Strep-Tactin beads), immunoblot with anti-HA or anti-FLAG. The source holds these as a separate data set.
The target in assay [9] is T1, EPRS1, endogenous in U937 cells (human (endogenous in U937)), P07814.
T1 chain: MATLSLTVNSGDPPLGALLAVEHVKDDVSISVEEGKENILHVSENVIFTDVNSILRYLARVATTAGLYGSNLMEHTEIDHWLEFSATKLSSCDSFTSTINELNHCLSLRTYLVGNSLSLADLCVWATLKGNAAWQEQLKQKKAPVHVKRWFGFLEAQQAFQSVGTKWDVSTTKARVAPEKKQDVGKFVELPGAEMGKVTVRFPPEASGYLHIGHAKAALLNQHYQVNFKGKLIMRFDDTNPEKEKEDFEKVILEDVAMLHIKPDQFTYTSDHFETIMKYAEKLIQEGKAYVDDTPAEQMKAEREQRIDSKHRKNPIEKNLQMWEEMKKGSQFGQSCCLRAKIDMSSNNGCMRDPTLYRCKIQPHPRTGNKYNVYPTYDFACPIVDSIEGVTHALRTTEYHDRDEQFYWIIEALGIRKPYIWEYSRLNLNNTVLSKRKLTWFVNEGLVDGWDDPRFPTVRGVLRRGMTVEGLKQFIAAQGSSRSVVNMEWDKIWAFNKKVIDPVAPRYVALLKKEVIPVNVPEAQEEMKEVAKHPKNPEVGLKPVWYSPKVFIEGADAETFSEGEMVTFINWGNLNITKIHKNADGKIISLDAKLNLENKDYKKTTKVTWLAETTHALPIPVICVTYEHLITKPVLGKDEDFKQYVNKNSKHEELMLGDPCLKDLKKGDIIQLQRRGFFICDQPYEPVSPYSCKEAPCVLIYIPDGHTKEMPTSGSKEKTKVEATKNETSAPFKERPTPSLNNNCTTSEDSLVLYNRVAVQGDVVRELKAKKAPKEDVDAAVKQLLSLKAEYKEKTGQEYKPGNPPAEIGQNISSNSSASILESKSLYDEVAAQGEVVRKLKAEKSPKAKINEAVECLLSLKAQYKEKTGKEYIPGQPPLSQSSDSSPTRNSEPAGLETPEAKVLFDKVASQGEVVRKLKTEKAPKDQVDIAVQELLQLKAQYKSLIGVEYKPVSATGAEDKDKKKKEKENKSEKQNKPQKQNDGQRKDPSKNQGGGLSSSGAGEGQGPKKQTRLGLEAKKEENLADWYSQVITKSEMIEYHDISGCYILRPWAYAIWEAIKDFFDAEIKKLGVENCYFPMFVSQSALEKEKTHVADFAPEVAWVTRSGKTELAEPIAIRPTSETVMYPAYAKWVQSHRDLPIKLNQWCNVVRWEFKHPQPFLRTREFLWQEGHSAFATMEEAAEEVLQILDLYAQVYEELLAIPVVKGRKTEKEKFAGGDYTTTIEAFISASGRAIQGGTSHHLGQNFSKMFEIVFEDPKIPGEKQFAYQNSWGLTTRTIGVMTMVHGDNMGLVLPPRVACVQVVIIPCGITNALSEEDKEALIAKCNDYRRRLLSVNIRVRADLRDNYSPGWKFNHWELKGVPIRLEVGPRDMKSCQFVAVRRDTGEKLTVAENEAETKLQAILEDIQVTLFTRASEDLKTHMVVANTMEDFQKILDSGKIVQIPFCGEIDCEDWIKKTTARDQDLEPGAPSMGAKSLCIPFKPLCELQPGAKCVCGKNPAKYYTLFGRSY
Kind of assay: co-IP; endogenous IP with anti-EPRS1 from U937 lysates, blots with anti-MARS1, anti-AIMP3, anti-KARS1; cells treated with LPS (100 ng/ml) for various times, IFNγ (100 ng/ml) as positive control. The conditions noted are these: remark: other sources report otherwise.

As for “EPRS1-FLAG, full-length (aa 1-1512) (from UniProt P07814 1-1512) (enzyme)”, the binding result in [1], in [2], in assay [3] and in assay [4] was “binds” each time.
Turning to “HA-AKT1 (from UniProt P31749 1-480) (enzyme)”, the binding result in assay [5] is recorded as “binds”.
For “KARS1, endogenous in U937 cells (from UniProt Q15046 1-597) (enzyme)”, the binding result in assay [6] is given as “binds”.
Consider “Strep-EPRS1 (glutamyl-prolyl-tRNA synthetase 1, Strep-tagged) (from UniProt P07814 1-1512) (enzyme)”, for which the binding entry in assay [7] is listed as “binds”.

B1: FLAG-tagged EPRS1 PARS1 domain (aa 1024-1512) (domain or fragment, UniProt P07814 1024-1512)
chain: LADWYSQVITKSEMIEYHDISGCYILRPWAYAIWEAIKDFFDAEIKKLGVENCYFPMFVSQSALEKEKTHVADFAPEVAWVTRSGKTELAEPIAIRPTSETVMYPAYAKWVQSHRDLPIKLNQWCNVVRWEFKHPQPFLRTREFLWQEGHSAFATMEEAAEEVLQILDLYAQVYEELLAIPVVKGRKTEKEKFAGGDYTTTIEAFISASGRAIQGGTSHHLGQNFSKMFEIVFEDPKIPGEKQFAYQNSWGLTTRTIGVMTMVHGDNMGLVLPPRVACVQVVIIPCGITNALSEEDKEALIAKCNDYRRRLLSVNIRVRADLRDNYSPGWKFNHWELKGVPIRLEVGPRDMKSCQFVAVRRDTGEKLTVAENEAETKLQAILEDIQVTLFTRASEDLKTHMVVANTMEDFQKILDSGKIVQIPFCGEIDCEDWIKKTTARDQDLEPGAPSMGAKSLCIPFKPLCELQPGAKCVCGKNPAKYYTLFGRSY
Take B1: the binding entry in assay [8] is reported as “binds”.

B2: MARS1, endogenous in U937 cells, P56192 1-900 (enzyme)
chain: MRLFVSDGVPGCLPVLAAAGRARGRAEVLISTVGPEDCVVPFLTRPKVPVLQLDSGNYLFSTSAICRYFFLLSGWEQDDLTNQWLEWEATELQPALSAALYYLVVQGKKGEDVLGSVRRALTHIDHSLSRQNCPFLAGETESLADIVLWGALYPLLQDPAYLPEELSALHSWFQTLSTQEPCQRAAETVLKQQGVLALRPYLQKQPQPSPAEGRAVTNEPEEEELATLSEEEIAMAVTAWEKGLESLPPLRPQQNPVLPVAGERNVLITSALPYVNNVPHLGNIIGCVLSADVFARYSRLRQWNTLYLCGTDEYGTATETKALEEGLTPQEICDKYHIIHADIYRWFNISFDIFGRTTTPQQTKITQDIFQQLLKRGFVLQDTVEQLRCEHCARFLADRFVEGVCPFCGYEEARGDQCDKCGKLINAVELKKPQCKVCRSCPVVQSSQHLFLDLPKLEKRLEEWLGRTLPGSDWTPNAQFITRSWLRDGLKPRCITRDLKWGTPVPLEGFEDKVFYVWFDATIGYLSITANYTDQWERWWKNPEQVDLYQFMAKDNVPFHSLVFPCSALGAEDNYTLVSHLIATEYLNYEDGKFSKSRGVGVFGDMAQDTGIPADIWRFYLLYIRPEGQDSAFSWTDLLLKNNSELLNNLGNFINRAGMFVSKFFGGYVPEMVLTPDDQRLLAHVTLELQHYHQLLEKVRIRDALRSILTISRHGNQYIQVNEPWKRIKGSEADRQRAGTVTGLAVNIAALLSVMLQPYMPTVSATIQAQLQLPPPACSILLTNFLCTLPAGHQIGTVSPLFQKLENDQIESLRQRFGGGQAKTSPKPAVVETVTTAKPQQIQALMDEVTKQGNIVRELKAQKADKNEVAAEVAKLLDLKKQLAVAEGKPPEAPKGKKKK
For the molecule B2, the binding result in assay [9] is listed as “binds”.

B3: FLAG-tagged EPRS1 EARS1 domain (aa 197-682) (domain or fragment, UniProt P07814 197-682)
chain: KVTVRFPPEASGYLHIGHAKAALLNQHYQVNFKGKLIMRFDDTNPEKEKEDFEKVILEDVAMLHIKPDQFTYTSDHFETIMKYAEKLIQEGKAYVDDTPAEQMKAEREQRIDSKHRKNPIEKNLQMWEEMKKGSQFGQSCCLRAKIDMSSNNGCMRDPTLYRCKIQPHPRTGNKYNVYPTYDFACPIVDSIEGVTHALRTTEYHDRDEQFYWIIEALGIRKPYIWEYSRLNLNNTVLSKRKLTWFVNEGLVDGWDDPRFPTVRGVLRRGMTVEGLKQFIAAQGSSRSVVNMEWDKIWAFNKKVIDPVAPRYVALLKKEVIPVNVPEAQEEMKEVAKHPKNPEVGLKPVWYSPKVFIEGADAETFSEGEMVTFINWGNLNITKIHKNADGKIISLDAKLNLENKDYKKTTKVTWLAETTHALPIPVICVTYEHLITKPVLGKDEDFKQYVNKNSKHEELMLGDPCLKDLKKGDIIQLQRRGFFICDQ
B3: the binding entry in [8] is “binds”.

B4: AIMP3, endogenous in U937 cells (protein, UniProt O43324 1-174)
chain: MAAAAELSLLEKSLGLSKGNKYSAQGERQIPVLQTNNGPSLTGLTTIAAHLVKQANKEYLLGSTAEEKAIVQQWLEYRVTQVDGHSSKNDIHTLLKDLNSYLEDKVYLTGYNFTLADILLYYGLHRFIVDLTVQEKEKYLNVSRWFCHIQHYPGIRQHLSSVVFIKNRLYTNSH
Regarding B4, the binding result in assay [6] was “binds”.
